The target in this assay is Copia^GagΔNC (Drosophila melanogaster) (UniProt P04146). In words: SEC; Superose 6 Increase 10/300 GL after overnight Ulp1 digestion; 25 mM HEPES pH 7.4, 150 mM NaCl, 10% glycerol, 100 uM ZnCl2, 500 mM imidazole, 2 mM 2-mercaptoethanol; assembled capsids elute at fraction 7, unassembled protein at fractions 24 to 26; both purified. (Size exclusion chromatography separates by hydrodynamic size, large species first.)

By UniProt entry, the sequences of proteins in these tests, tags left out. Where a name states a change or a piece, a line headed by the entry shows the natural chain unless it says otherwise. Residues count along the entry.
UniProt P04146, residues 1-185: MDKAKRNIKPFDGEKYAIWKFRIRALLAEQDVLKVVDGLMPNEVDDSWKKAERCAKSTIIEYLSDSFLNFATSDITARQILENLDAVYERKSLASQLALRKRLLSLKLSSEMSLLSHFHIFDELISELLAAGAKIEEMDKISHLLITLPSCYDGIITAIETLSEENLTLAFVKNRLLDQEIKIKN

Results are given in words; binding and its absence hold for the method and conditions named.

In the case of “Copia^GagΔNC (from UniProt P04146 1-185) (domain or fragment)”, the binding entry is listed as “no binding”.
